No constants are given. Whether binding was seen depends on the method and setting. For some of these results: A result given as binding can be weak or reduced; the word gives no strength. Where a sequence is shown, tags or fusion partners need not be part of it.

Consider 1 substance from article doi:10.1101/2024.05.08.592561 (bioRxiv, 2024).

For experiment [1], the target named is T1, biotinylated ParT-His6 (wild type) (Streptomyces coelicolor) (UniProt Q8VWE5).
T1 sequence (chain, biotin (NHS-PEG4-Biotin; sites not stated)): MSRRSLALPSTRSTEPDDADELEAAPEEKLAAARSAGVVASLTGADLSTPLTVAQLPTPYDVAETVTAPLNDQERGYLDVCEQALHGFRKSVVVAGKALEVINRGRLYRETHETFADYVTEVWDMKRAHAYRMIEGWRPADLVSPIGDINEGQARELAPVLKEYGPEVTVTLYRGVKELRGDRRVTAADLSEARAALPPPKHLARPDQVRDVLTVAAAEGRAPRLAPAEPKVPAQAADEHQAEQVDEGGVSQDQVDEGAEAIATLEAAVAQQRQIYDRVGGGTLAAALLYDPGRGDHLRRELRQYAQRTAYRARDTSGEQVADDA
Put plainly: condition: only with 1 mM ATP but without non-specific DNA.

Experiment [2] concerns the target T1, biotinylated ParT-His6 (wild type) (Streptomyces coelicolor). Put plainly: condition: only with 0.05 mg/mL non-specific DNA but without ATP.
The target is the same in experiment [3]. Nature of the experiment: BLI. (BLI is a label-free optical method that tracks binding on a fibre tip over time.)
Experiment [4] has the same target. Put plainly: condition: only ParA alone, without ATP and non-specific DNA.

As for “ParA-His6 (SCP2 ParA) (Streptomyces coelicolor) (enzyme)”, the binding entry in experiment [1] is recorded as “no binding”; in experiment [2], “no binding”; in experiment [3], “binds”; in experiment [4], “no binding”.
